# Assay results reported in PubChem BioAssay AID540256 (National Center for Advancing Translational Sciences (NCATS), 2011).
# Hit rate of the full screen: of about 300,000 compounds, about 3,700 (1.2%) were called active. The inconclusive results got no clear call from the source; some entries with a clear call stand among them for comparison. Calls follow the shape of the full dose curve; tested in HEK293 cells. Potencies of inconclusive entries are doubtful fits and often do not repeat.
# Assay: qHTS for Inhibitors of binding or entry into cells for Lassa Virus; also: nearly all actives have a fitted effect of over 50% in size
# Details: Lassa virus pseudotype entry inhibition, cell reporter; activity change, negative = inhibition: at 37.9 µM (top of the series) unless noted
# % is scaled to controls: 0 for no effect and ±100 for the full control effect; potency is read from the fitted curve at half-maximal effect.
Structure (SMILES),Potency,"activity change, negative = inhibition"
Cc1ccc(-n2cc(CN3CCC(O)(c4ccccn4)CC3)c(-c3ccc(F)cc3)n2)cc1,"inconclusive: 35.5 µM [inhibitor, single point]",
O=C(N/N=C/c1cc(Br)c(Br)s1)c1ccncc1,active: 10 µM,
CCOc1cc(N2CCOCC2)c(OCC)cc1NC(=O)Cc1ccccc1OC,,inactive: -23.3%
Cc1cccc(C(=O)Nc2nc(-c3nnn(-c4cc(F)ccc4F)c3C)ns2)c1,"inconclusive: 25.1 µM [inhibitor, single point]",
Cc1cccn2c(=O)c3cc(C(=O)N(Cc4ccccc4)C(C)C)sc3nc12,"inconclusive: 14.1 µM [inhibitor, partial curve, poor fit]",
CCn1c(SCC(=O)Nc2nccs2)nnc1-c1ccc(S(=O)(=O)N2CCCCCC2)cc1,"inconclusive: 14.6 µM [inhibitor, partial curve]",
CC1=CC(C)[C@H](/C=N/n2c(=O)[nH]c3c([nH]c4ccc(Br)cc43)c2=O)C(C)C1 (stereo partly specified),"inconclusive: 3.98 µM [inhibitor, full curve]",
O=S(=O)(NCc1ccccc1Cl)c1ccc(N2CCCCS2(=O)=O)cc1,,inactive: -0.676% [at 46.1 µM]
CSCC[C@H](NC(=O)c1cccc(S(=O)(=O)N2CCCCCC2)c1)c1nc2ccccc2[nH]1,"inconclusive: 35.5 µM [inhibitor, single point]",
Cc1ccccc1NC(=S)N/N=C1\CC(C)(C)Oc2ccc(O)cc21,"inconclusive: 35.5 µM [inhibitor, single point]",
CN(C)c1ccc(/C=N/Nc2nc3ccccc3o2)cc1,active: 5.62 µM,
CC(C)(C)NC(=O)NC(=O)COC(=O)Cc1c(Cl)cccc1Cl,,inactive: -11.2% [at 46.1 µM]
CCN(CC)S(=O)(=O)c1ccc(N2CCCCC2)c(C(=O)Nc2ccccc2N2CCOCC2)c1,active: 10.3 µM,
CC(C)C[C@@H](NC(=O)C1CCC(CNC(=O)[C@@H]2CCCN2C(=O)OC(C)(C)C)CC1)C(=O)O (stereo partly specified),"inconclusive: 3.55 µM [inhibitor, single point]",
CN(Cc1nc(-c2ccccc2)no1)C(=O)c1ccc2c(c1)OCO2,,inactive: 12.9%
Oc1c(C(Nc2nccs2)c2ccc(C(F)(F)F)cc2)ccc2cccnc12 (stereo unspecified),"inconclusive: 2.51 µM [inhibitor, partial curve, poor fit]",
Cc1cccc(NC(=O)C(=O)c2cc(C)n(-c3ccccc3)c2C)c1C,"inconclusive: 17.8 µM [activator, single point]",
O=C(Nc1cccc(-c2nc3ncccc3o2)c1)c1ccc(-c2cccc(Cl)c2Cl)o1,,inactive: -18.7% [at 46.1 µM]
COc1ccc(NC(=O)/C=C/c2ccc(OC(F)F)cc2)cn1,"inconclusive: 7.94 µM [inhibitor, partial curve, poor fit]",
COc1ccc(N2CCN(C(=O)C3CCCN(S(=O)(=O)c4ccc(F)cc4)C3)CC2)cc1 (stereo unspecified),,inactive: -18.8%
CCC(=O)Nc1cc(-c2nn(C)c(=O)c3ccccc23)ccc1N1CCCCC1,"inconclusive: 3.16 µM [inhibitor, partial curve, poor fit]",
Cc1nnc(SCCn2c(N3CCCC(C)C3)nc3c2c(=O)[nH]c(=O)n3C)s1 (stereo unspecified),"inconclusive: 32.6 µM [inhibitor, partial curve, poor fit]",

# Grouped by structure, the entries above with an aryl methoxy group.
Structure (SMILES),Potency,"activity change, negative = inhibition"
CCOc1cc(N2CCOCC2)c(OCC)cc1NC(=O)Cc1ccccc1OC,,inactive: -23.3%
COc1ccc(NC(=O)/C=C/c2ccc(OC(F)F)cc2)cn1,"inconclusive: 7.94 µM [inhibitor, partial curve, poor fit]",
COc1ccc(N2CCN(C(=O)C3CCCN(S(=O)(=O)c4ccc(F)cc4)C3)CC2)cc1 (stereo unspecified),,inactive: -18.8%

# Additional structures:

Structure (SMILES),Potency,"activity change, negative = inhibition"
O=C(Nc1ccccc1)c1cc(-c2ccccc2Cl)no1,,inactive: -4.36%
Cc1ccc(-n2c(SCc3ccccc3F)nc3[nH]ncc3c2=O)cc1C,"inconclusive: 3.16 µM [activator, partial curve, poor fit]",
c1cc2c(cc1Nc1nc(-c3ccc4c(c3)OCO4)cs1)OCCO2,"inconclusive: 32.6 µM [activator, single point]",
Cc1cnc(C(=O)Nc2ccc(F)c(F)c2)cn1,,inactive: 15.8%
COC(=O)CCn1c(C)cc(C(=O)COc2ccccc2C(N)=O)c1C,,inactive: -32.3%
COc1ccc(C(=O)NCC(c2cccnc2)N2CCN(c3ccc(F)cc3)CC2)cc1 (stereo unspecified),,inactive: -15.3% [at 46.1 µM]
COc1c(Br)cc(Br)cc1C(=O)Nc1ccccc1N1CCCC1,,inactive: -27.8%
Oc1ccccc1C=Nc1ccccc1-c1nc2ccccc2[nH]1,"inconclusive: 3.98 µM [inhibitor, single point]",
Cc1ccc(-n2[nH]c(C)c(C=Nc3ccc4[nH]c(=O)[nH]c4c3)c2=O)cc1,"inconclusive: 28.2 µM [inhibitor, single point]",
Cc1cccc(C(=O)N2CCN(c3ccc([N+](=O)[O-])c(NCc4ccco4)c3)CC2)c1,"inconclusive: 12.6 µM [inhibitor, partial curve, poor fit]",
COC(=O)c1c(NC(=O)C2CC2)sc(C(=O)Nc2ccccc2)c1C,,inactive: -0.0654%
CC(C)CN(CCCNC(=O)CN1C(=O)COc2ccc(S(=O)(=O)N3CCC(C)CC3)cc21)CC(C)C,"inconclusive: 6.31 µM [inhibitor, single point]",
N/C(=N\NC(=O)c1sccc1OCc1ccc(Cl)cc1Cl)c1ccccn1,"inconclusive: 29.1 µM [inhibitor, single point]",
O=C(Nc1nccs1)c1ccc2nccnc2c1,"inconclusive: 7.3 µM [activator, partial curve]",
C/C(=N/NC(=O)c1ccc2nc[nH]c2c1)c1cccs1,"inconclusive: 0.562 µM [activator, full curve, poor fit]",
O=C(NCC1CCCO1)c1cccc(NC(=O)c2cccs2)c1 (stereo unspecified),"inconclusive: 2.82 µM [inhibitor, partial curve, poor fit]",
Brc1ccc2c(c1)C(C1=NCCN1)c1ccccc1CS2 (stereo unspecified),"inconclusive: 9.2 µM [inhibitor, partial curve, poor fit]",
C[C@]1(C(=O)NCCc2c[nH]c3ccccc23)C=C[C@@H](Cc2ccccc2)N1C(=O)c1ccccc1,"inconclusive: 29.1 µM [inhibitor, single point]",
COc1ccc(C(=O)NC2=C(C#N)CCC2)cc1OC,"inconclusive: 6.51 µM [inhibitor, single point]",
COc1ccc(NC(=O)COC(=O)/C=C/c2ccccc2[N+](=O)[O-])cc1OC,,inactive: -21.8%
Cc1cccc(C(=O)N(Cc2nc3ccccc3c(=O)[nH]2)C2CCCC2)c1,"inconclusive: 20 µM [inhibitor, partial curve, poor fit]",
CCCSc1ccc(C(=O)Nc2ccc(F)cc2F)cn1,,inactive: -5.44% [at 46.1 µM]

Structure (SMILES),Potency,"activity change, negative = inhibition"
Cc1cccc(NC(=O)CSc2nc3c(c(=O)[nH]2)CN(Cc2ccc4c(c2)OCO4)CC3)c1C,,inactive: -0.248% [at 46.1 µM]
CC(=O)Nc1ccc(NC(=O)C(C)OC(=O)CCCc2c[nH]c3ccccc23)cc1 (stereo unspecified),"inconclusive: 10 µM [inhibitor, partial curve]",
O=C(NCC1CCCO1)c1ccc2nc(N3CCCCC3)sc2c1 (stereo unspecified),,inactive: 5.42%
CC=CC1OCC(CC)C(CCC)O1 (stereo unspecified),"inconclusive: 31.6 µM [activator, single point]",
CN(C1CCCCC1)S(=O)(=O)c1ccc(C(=O)Nc2sc3c(c2C(N)=O)CC(C)(C)NC3(C)C)cc1,"inconclusive: 0.501 µM [inhibitor, full curve, poor fit]",
COc1ccc(N2CCN(C(=O)CSCc3nc(-c4ccccc4Cl)oc3C)CC2)cc1,"inconclusive: 35.5 µM [inhibitor, single point]",
Cc1nc2ccc(NC(=O)c3ccc(S(=O)(=O)N(C)C)cc3)cc2s1,,inactive: -7.63% [at 46.1 µM]
CN(c1cccc(NC(=O)COc2ccc(Cl)cc2Cl)c1)S(C)(=O)=O,"inconclusive: 35.5 µM [inhibitor, single point]",
CC(=O)c1cc(-c2ccccc2)n(CC(=O)NC2CCCCCC2)c1C,,inactive: 12.5% [at 46.1 µM]
Cc1ccc(-n2ncc3c(SCC(=O)Nc4cc(C)on4)ncnc32)c(C)c1,"inconclusive: 22.4 µM [inhibitor, partial curve, poor fit]",
CCn1c(-c2nonc2N)nc2c(C#CC(C)(C)O)ncc(OCC3CCNCC3)c21,"inconclusive: 3.97 µM [inhibitor, full curve, poor fit]",
Cc1ccc(S(=O)(=O)N2CCC(C(=O)NCCCN3CCCC3=O)CC2)cc1C,"inconclusive: 1.26 µM [activator, single point]",
Cc1onc(-c2c(Cl)cccc2Cl)c1COC(=O)c1ccc(Cl)cc1[N+](=O)[O-],"inconclusive: 7.94 µM [inhibitor, partial curve, poor fit]",
COc1ccc(C2SCCN2S(=O)(=O)c2ccc(NC(C)=O)cc2)cc1 (stereo unspecified),"inconclusive: 10.3 µM [inhibitor, partial curve, poor fit]",
CCOc1ccc2oc(=O)cc(CN3CCN(c4ccc(OC)cc4)CC3)c2c1,,inactive: 9.04% [at 46.1 µM]
COc1ccc(/C=C2/CCCC(CN(C)C)C2=O)cc1 (stereo unspecified),,inactive: -13%
CCOc1cc(S(=O)(=O)n2cc(-c3ccc(F)cc3)c(N)n2)cc(OCC)c1OCC,"inconclusive: 35.5 µM [inhibitor, single point]",
CS(=O)(=O)c1ccc2nc(NC(=O)C3CC(=O)N(c4ccc(F)cc4)C3)sc2c1 (stereo unspecified),"inconclusive: 35.5 µM [inhibitor, single point]",
COCCNC(=O)C(c1ccc(F)cc1)N(C(=O)CCC(=O)Nc1nccs1)c1ccc(C)cc1 (stereo unspecified),"inconclusive: 6.31 µM [inhibitor, full curve, poor fit]",
CC1=C(C(=O)OC2CCCCCCC2)C(c2ccc(O)cc2)NC(=O)N1 (stereo unspecified),active: 2.59 µM,
CCOC(=O)c1ccc(N2C(=O)c3n[nH]c(-c4cccs4)c3C2c2ccc(O)c(OC)c2)cc1 (stereo unspecified),"inconclusive: 5.62 µM [inhibitor, partial curve]",
O=C(Cc1c(F)cccc1Cl)Nc1ccccc1C(=O)N1CCCCC1,"inconclusive: 0.112 µM [activator, partial curve, poor fit]",
